Percent effect of library compounds

A: 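Whole-parasite assay of Trypanosoma brucei over 72 hours; the read-out is not stated. Compounds at 30 µM. Higher reads as stronger inhibition (inferred: compounds with an IC50 in retests scored well above the rest). Values scatter widely below zero; nearly all retest evidence comes from the higher of the two concentrations used. About 64,000 compounds were tested under these conditions; 1.5% (about 940) showed 50% or more at least once.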
B: 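Assay of Toxoplasma gondii numbers, read through their beta-galactosidase reporter with a colour substrate. Concentration: 10 µM. The record gives no direction; the compounds picked for IC50 retests had high values, so higher reads as fewer parasites. Size under these conditions: about 67,000 compounds, about 260 of them at 50% or above in at least one test.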
C: 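Cell assay of Leishmania donovani living inside macrophages; the read-out is not stated. Concentration: 30 µM. The record gives no direction; compounds that gave an IC50 in retests scored well above the rest, so higher reads as stronger inhibition. Size under these conditions: about 69,000 compounds, about 1,000 of them at 50% or above in at least one test.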

Each number is a percent effect as filed. The controls that fix the scale are not given in the record; negative values are as filed. This is an unselected part of the compounds tested. Two or more numbers in one place are separate tests of the same structure; such repeats can differ widely. A dash means the value is not listed here; it may have been measured.

| # | compound | A | B | C |
|---|---|---|---|---|
| 1 | `COCCC1(C(=O)O)CCCN(CC(=O)NCCc2ccccc2)C1` (stereo not drawn) | -47.2 | -4.592 | -23.02 |
| 2 | `CSCC(=O)N(C)Cc1cnn(-c2ccc(F)cc2)c1` | -71.38 | -13.9 | -31.54 |
| 3 | `CO[C@@H]1CO[C@@]2(CCCN(C(=O)N3CCCC3)C2)C1` | -61.43 | -28.55 | 43.24 |
| 4 | `CN(Cc1cccc(F)c1)S(=O)(=O)N1CCOCC1` | 10.12 | 5.078 | 7.572 |
| 5 | `CC(C)(C)C(=O)N1CCCC(c2ncncc2-c2ccncc2)C1` (stereo not drawn) | 7.208 | 12.75 | 7.885 |
| 6 | `O=C1COc2ccc(C(=O)NS(=O)(=O)c3ccccc3F)cc2N1` | -19.73 | 8.273 | -23.32 |
| 7 | `Cc1noc(C(C)C)c1C(=O)N1CCOCC1CC(=O)c1ccco1` (stereo not drawn) | -21.82 | 0.8547 | -14.03 |
| 8 | `O=C(O)C(F)(F)F.[H][C@]12CCN(C(=O)CC3CC3)[C@@]1([H])CC[C@@H](COCc1cccc(C)n1)O2` | -22.8 | -0.4048 | -5.524 |
| 9 | `O=S(=O)(c1cn[nH]c1)N1CCC(O)(CN2CCC(F)(F)CC2)C1` (stereo not drawn) | -13.36 | 18.37 | -8.279 |
| 10 | `O=C(NCc1ccccc1CN1CCC(O)CC1)Nc1ccccn1` | -58.43 | -13.08 | 37.65 |
| 11 | `COc1ccc(C(C(=O)O)N(C)Cc2ccon2)cc1Cl` (stereo not drawn) | -18.42 | 9.27 | 7.964 |
| 12 | `Cc1ccccc1CC(=O)N[C@@H]1CCC[C@@H](N2CCNC(=O)C2)[C@@H]1O` | -3.217 | 6.537 | 16.43 and 19.74 |
| 13 | `Cc1cccc(-c2nc(CN3CCCC3Cn3cc(C)cn3)no2)c1` (stereo not drawn) | -8.003 | -5.873 | -15.17 |
| 14 | `Cc1cccnc1CNc1ccc(C(=O)N2CCc3ccccc32)cn1` | -5.807 | 7.968 | 1.313 |
| 15 | `CCc1ccc(C(NC(=O)CCS(C)(=O)=O)C(C)(C)C)o1` (stereo not drawn) | -34.6 | 2.519 | 17.01 |
| 16 | `Cc1cc(C(F)(F)F)nc(CNC(=O)CCCN2CCCCC2)n1` | -35.55 | -30.31 | -6.524 |
| 17 | `Cc1nn(C)c(Cl)c1C(=O)NCC(c1ccsc1)N(C)C` (stereo not drawn) | -0.04586 | - | 32.45 |
| 18 | `Cc1ccc(C)c2c(O)cc(CN[C@H]3CCCCNC3=O)nc12` | 23.26 | 2.664 | 15.72 |
| 19 | `O=C(c1ccc(Br)s1)N1CCN(Cc2ccc(OC(F)(F)F)cc2)CC1` | -25.72 | 3.065 | 28.85 |
| 20 | `CS(=O)(=O)N(Cc1ccon1)c1ccc2c(c1)OCO2` | 4.164 | -2.824 | 2.502 |
| 21 | `Cc1cc(NCCO)nc(N2CCN(C)CC2)c1C#N` | -23.32 | -10.98 | 14.67 |
| 22 | `Cc1nc(CN2CCC3(CC2)CC(c2cccnc2)C(=O)N3C)cs1.O=C(O)C(F)(F)F.O=C(O)C(F)(F)F` (stereo not drawn) | -41.8 | -6.745 | 17.92 |
| 23 | `NC1CCN(C(=O)c2cnc(Cc3c(Cl)cccc3Cl)nc2O)C1` (stereo not drawn) | -6.593 | -1.834 | -7.036 |
| 24 | `CS(=O)(=O)N1CCC(CNC(=O)c2cnccn2)CC1` | -21.85 | -0.3958 | -15.05 and -4.451 |
| 25 | `[H][C@]12CN(CCOC)C(=O)[C@@]1([H])CN(c1ncc(F)cn1)C2` | -30.96 | 8.097 | -41.21 |
| 26 | `CC(C)(NCc1ccc(C#N)cc1)c1ccc2c(c1)OCO2` | -49.28 | 5.869 | 0.2672 |
| 27 | `OC1CCN(CCCn2ccnc2-c2c[nH]cn2)CC1` | -5.064 | -2.914 | 5.425 |
| 28 | `CSCc1cc(F)ccc1CNC(=O)N1CCCC(CO)C1` (stereo not drawn) | -21.19 | -5.618 | 16.01 |
| 29 | `CC(C)Cc1nc(OCC#N)c(C#N)c2c1CCC2` | -40.39 | 7.432 | 20.09 and 29.64 |
| 30 | `CNc1nc(C)cc(NCc2cc(C)cc3c(C)c(C)[nH]c23)n1` | -23.47 | 10.15 | 35.88 |
| 31 | `O=C1CC(NCc2ccc(Cl)s2)CN1Cc1cccc(F)c1` (stereo not drawn) | 3.72 | 4.826 | -3.488 |
| 32 | `CNc1cc(C)nc(-c2cc(NCCO)nc3[nH]ccc23)n1` | -38.82 | 19.99 | 20.77 |
| 33 | `Cc1ccc(C(=O)N2CCN(C(=O)NC(C)Cn3ccnc3)CC2)o1` (stereo not drawn) | -6.464 | -25.69 | 16.78 |
| 34 | `Cn1ccc(C(=O)N2CCCCC23CC(=O)N(Cc2ccccc2)C3)n1` (stereo not drawn) | -9.238 | -16.28 | 3.319 |
| 35 | `Cc1cnc(CNc2ccccc2CN(C)C(=O)c2cccs2)o1` | -50.64 | 25.71 | 0.09547 |
| 36 | `O=C(O)C(F)(F)F.O=C(O)C(F)(F)F.[H][C@@]12CN(CCN3CCCC3)CC[C@]1([H])CN(c1cc(OC)ncn1)C2` | -38.9 | 0.7012 | 12.42 |
| 37 | `CCc1nc2n(n1)CC(NCCC(=O)Nc1cc(C)on1)CC2` (stereo not drawn) | -18.71 | -0.09572 | 24.14 |
| 38 | `CCC(C)N(C)C(=O)Nc1ccc(N2CCSCC2)cc1C` (stereo not drawn) | -11.52 | 5.434 | 26.69 |
| 39 | `Cc1cccc(-n2nnnc2C(C)(C)Nc2ccccc2C)c1` | -20.39 | -50.06 | 19.47 |
| 40 | `Cl.NCC1CCCCN1C(=O)Cc1cccc(Cl)c1` (stereo not drawn) | -11.75 | -48.72 | -5.12 |
| 41 | `CNc1ncc(C(=O)N2CCC3(CC2)Nc2ccccc2NC3=O)cn1` | -26.99 | -0.1622 | -4.84 |
| 42 | `Fc1cnccc1CN1CCCC2(CCN(c3ncccn3)CC2)C1.O=C(O)C(F)(F)F` | -122.5 | 5.382 | 6.498 |
| 43 | `O=C(Cc1ccccn1)N1CCc2nc(-c3cnccn3)nc(O)c2C1` | -16.04 | -3.908 | 0.5557 |
| 44 | `[H][C@@]12OCCN(C(=O)c3ccco3)[C@@]1([H])CC[C@H]2OC` | -75.77 | -4.732 | 6.274 |
| 45 | `N#Cc1c(F)cccc1N1CCCC(C(=O)Nc2nncs2)C1` (stereo not drawn) | -13.74 | 8.33 | 39.68 |
| 46 | `CN(Cc1cnn(C)c1)C(=O)CCc1ccc2c(c1)OCO2` | -27.27 | -1.457 | 29.73 |
| 47 | `CC(C)CN(Cc1nc2c(cnn2C)c(=O)[nH]1)CC(C)C` | 3.745 | -6.182 | 20.83 |
| 48 | `CC(C)(C)n1nnnc1CN(Cc1ccccc1)Cc1ccc(Cl)cc1` | - | 3.359 | 73.63 |
| 49 | `COc1ccc(OC)c(-c2nc(CN(C)Cc3noc(C)n3)c(C)o2)c1` | -7.41 | -20.15 | -51.65 |
| 50 | `Cc1cccc(C(=O)Nc2ccc(OC3CCN(C)CC3)cc2)c1` | 35.2 | -12.89 | -3.333 |
| 51 | `O=C(O)C(F)(F)F.[H][C@@]12CCN(CC(=O)N(C)C)C(=O)[C@@]1([H])CN(S(C)(=O)=O)C2` | -13.05 | -4.135 | 5.559 |
| 52 | `CC(O)CN1CCC(CNCc2ccccc2Cl)CC1` (stereo not drawn) | - | 10.94 | 7.148 |
| 53 | `COC(=O)COc1c(F)cc(Br)cc1C(C)=O` | -34.03 | 9.913 | -44.53 |

Repeated from the top, 7 entries:

compound	A	B	C
COCCC1(C(=O)O)CCCN(CC(=O)NCCc2ccccc2)C1 (stereo not drawn)	-47.2	-4.592	-23.02
CSCC(=O)N(C)Cc1cnn(-c2ccc(F)cc2)c1	-71.38	-13.9	-31.54
CO[C@@H]1CO[C@@]2(CCCN(C(=O)N3CCCC3)C2)C1	-61.43	-28.55	43.24
CN(Cc1cccc(F)c1)S(=O)(=O)N1CCOCC1	10.12	5.078	7.572
CC(C)(C)C(=O)N1CCCC(c2ncncc2-c2ccncc2)C1 (stereo not drawn)	7.208	12.75	7.885
O=C1COc2ccc(C(=O)NS(=O)(=O)c3ccccc3F)cc2N1	-19.73	8.273	-23.32
Cc1noc(C(C)C)c1C(=O)N1CCOCC1CC(=O)c1ccco1 (stereo not drawn)	-21.82	0.8547	-14.03

Source: ChEMBL document CHEMBL3988442, “University of Dundee, Small-Polar-MMV Screening Library” (2021).